Laboratory results: PubChem BioAssay AID1347426 (Functional Genomics Laboratory (NCATS/FGL), 2020)
About 1,400 (4.5%) of roughly 31,000 sequences were called active.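 Rule for the calls: active = median seed-adjusted z-score above 1 or below -1; inactive = the rest.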 The list shows a part of the results.

Assay: Novel Modifiers of Survival Motor Neuron (SMN) Protein: Gene Identification via Genome-wide siRNA Screen;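 note: luminescence tracks full-length SMN protein made from the SMN2 reporter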
Conditions: HEK293T SMN2-luciferase reporter, siRNA knockdown, 72 h; actives lie on both sides
Procedure, shortened: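 HEK293T cells stably carrying an SMN2 promoter/splicing cassette–luciferase reporter were reverse-transfected with 1 pmol siRNA per well (druggable-genome library, 3 siRNAs per gene) and grown 72 h at 37 °C. Luminescence, normalized to negative-control siRNA and log10-transformed, was scored as MAD.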
With GGUUACCUUCCUUCAAUUATT against CCRN4L the median seed-adjusted z-score was inactive: -0.572.
For UCAUUGACCUUAACAAGAATT against PHYHIP, the median seed-adjusted z-score was inactive: 0.18.
In the case of GCUCGGAUAUGCUCCAGGATT against TMPRSS5, the median seed-adjusted z-score is reported as active: 1.25.
With GAGAUUCAAAGAAUAGUAATT against RASSF6 the median seed-adjusted z-score was inactive: -0.592.
For GCCUAGCUCCUACUUAUGATT against DDX25, the median seed-adjusted z-score was inactive: 0.
In the case of GGUGGUACAAUGUCACUGATT against SPINT2, the median seed-adjusted z-score is reported as inactive: 0.00974.
In the case of CGCACAGAGUACAGACUUATT against SFRS4, the median seed-adjusted z-score is reported as inactive: 0.239.
In the case of GCUAAUGAAUUGAAACGGATT against MYO1D, the median seed-adjusted z-score is reported as inactive: -0.201.
For GUUGAUCAGCUGUCCCUUUTT against ILVBL, the median seed-adjusted z-score was inactive: 0.343.
In the case of CUAUUGGUAUAGUCGAUAATT against GIN1, the median seed-adjusted z-score is reported as inactive: -0.0585.
For CCAUGAGUGUUAUGACGAUTT against BFSP1, the median seed-adjusted z-score was inactive: 0.057.
With AUAAGGAACUUGAUCCUAUTT against ATP5J the median seed-adjusted z-score was inactive: 0.242.
With CUGUCAGAGUGGAGACGUATT against CLK1 the median seed-adjusted z-score was inactive: -0.436.
For CAAACGAUCAGUAAGAAUATT against FLI1, the median seed-adjusted z-score was inactive: 0.255.
In the case of GAAUCGAGAUCAACAGAUATT against ZNF280B, the median seed-adjusted z-score is reported as inactive: 0.113.
With CCUGAGCUCUGAGAAACAATT against TRIM43 the median seed-adjusted z-score was inactive: -0.4.
With GCAUUACGAUAGCUCAUUATT against FOXL1 the median seed-adjusted z-score was inactive: -0.448.
For GCAUGUUACUUCGCUUUUUTT against EIF4G2, the median seed-adjusted z-score was inactive: -0.386.
With GCACCUCAACUGUUCACAATT against OSBP2 the median seed-adjusted z-score was inactive: -0.568.
In the case of ACAGGAAACUGGUGAUAAATT against SLC16A8, the median seed-adjusted z-score is reported as inactive: 0.192.
With GGAAGAAUCAUUUUCCUCATT against KLK10 the median seed-adjusted z-score was inactive: -0.902.
For AGCACACCGUGGUAGUAUATT against DCAKD, the median seed-adjusted z-score was inactive: 0.0872.
In the case of GCAAGACCAAGAUACCGAUTT against ATAD2, the median seed-adjusted z-score is reported as inactive: -0.246.
In the case of GGACAUGACAGCAACCUUUTT against EGR1, the median seed-adjusted z-score is reported as inactive: 0.0836.
For AGAUGUCCCUGUUGUUUGATT against RASGRP2, the median seed-adjusted z-score was inactive: -0.00329.
For AGAUGUUCCCGCAAAUCAATT against SLC6A20, the median seed-adjusted z-score was inactive: -0.306.
For GCGACUUGGUAGGAGAAAATT against M6PR, the median seed-adjusted z-score was inactive: -0.879.
For ACAUGCAGAUAUUCAAUGATT against HMOX2, the median seed-adjusted z-score was inactive: 0.
In the case of CAAGCUGUCUAAGUCCAAATT against NOVA1, the median seed-adjusted z-score is reported as inactive: -0.486.
In the case of GCAACUUAGAGUUUGGUGATT against PODN, the median seed-adjusted z-score is reported as inactive: 0.589.
For CGUGAGUGCUGUAAAUGCATT against ALG8, the median seed-adjusted z-score was inactive: -0.0604.
With AGGUAUCGGUCAUGAUGAATT against TNK1 the median seed-adjusted z-score was inactive: -0.727.
For CGCUGAGCAGGUCAUCUUUTT against PVRL2, the median seed-adjusted z-score was inactive: -0.367.
For AGAUUUAUGCUAUCCGUCATT against RPS16, the median seed-adjusted z-score was inactive: 0.
For AGAUGAGCCUAUACAGCGATT against TRIM9, the median seed-adjusted z-score was inactive: -0.437.
For CCAUUAGGAUUAACAGUAATT against PHYH, the median seed-adjusted z-score was inactive: 0.208.
With GGUUUACGUUGUAACCGAATT against PLSCR4 the median seed-adjusted z-score was inactive: -0.543.
In the case of GCUCAUUAGGUGCUUCAUUTT against AQP8, the median seed-adjusted z-score is reported as inactive: -0.763.
In the case of CACCUUAUCCUGACGUAAATT against MET, the median seed-adjusted z-score is reported as inactive: 0.55.
With GCCUUCGCAUCUCAGAAUATT against SLC26A11 the median seed-adjusted z-score was inactive: -0.507.
In the case of GGAAUGCGAUUCAAUGUGATT against DECR1, the median seed-adjusted z-score is reported as inactive: 0.0567.
For AGAUCACUCUCAUCAAUGATT against CDH23, the median seed-adjusted z-score was inactive: -0.918.
With CCACCGCAAUCCUACCAGUTT against AURKAIP1 the median seed-adjusted z-score was inactive: 0.067.
With UCAGCACCGUGGAUAGGGATT against ANGPTL6 the median seed-adjusted z-score was inactive: 0.
In the case of CUCUGGGAGUCACGACUUUTT against GPR37L1, the median seed-adjusted z-score is reported as inactive: -0.0348.
With AGAAUGUGAUGGAGAGGAATT against RCC1 the median seed-adjusted z-score was inactive: -0.165.
In the case of GGAAGGCAACUGUCAUUUUTT against ZNF461, the median seed-adjusted z-score is reported as inactive: 0.0877.
For CGCGUUAAAUCAGGAAGCATT against HOXA1, the median seed-adjusted z-score was inactive: 0.
In the case of CAAGGUCACCAGUUGAAAATT against SCML1, the median seed-adjusted z-score is reported as inactive: 0.575.
With CCACUUCACGAUCAAAGAUTT against GAA the median seed-adjusted z-score was inactive: 0.756.
In the case of GACUUUGCGCAGUACCAGATT against SP5, the median seed-adjusted z-score is reported as inactive: 0.105.
In the case of GCCUUCUCCAAGUAAAUUUTT against ZNF296, the median seed-adjusted z-score is reported as inactive: -0.00618.
With GCAGAAUGCAUAUAGAGCATT against ALKBH1 the median seed-adjusted z-score was inactive: -0.087.
In the case of CUUUAACUGGGAUCACUGUTT against FOLR3, the median seed-adjusted z-score is reported as inactive: 0.
In the case of GAAUCGGAGAGUGUAGAUATT against HNRNPD, the median seed-adjusted z-score is reported as inactive: 0.504.
For GAAGGAAGUGAGUCUAUAATT against PPME1, the median seed-adjusted z-score was inactive: 0.342.
For AAACAACAGGGAUUAAUGATT against ERN2, the median seed-adjusted z-score was inactive: 0.526.
In the case of GCUACUACCAAGGAUCUCATT against ARL15, the median seed-adjusted z-score is reported as inactive: -0.944.
In the case of GGGUUCAACUGGAGGCAAATT against RBM15, the median seed-adjusted z-score is reported as inactive: -0.409.
For GCCUUAUAGAUGUAUUGAATT against ZNF485, the median seed-adjusted z-score was inactive: 0.445.
For GGUCUUCGAGUUGUACCAATT against TG, the median seed-adjusted z-score was inactive: 0.0137.
For GGAAGACUAUUGGAUAGAATT against ARHGAP18, the median seed-adjusted z-score was inactive: 0.
With GGAUGGUAAUCACAAUUGATT against XPNPEP3 the median seed-adjusted z-score was inactive: -0.282.
In the case of AAACUAACAUUCGAUUGAATT against TRIM48, the median seed-adjusted z-score is reported as inactive: 0.
For GGUCGGAUAUGUAGAUUAUTT against TDRD1, the median seed-adjusted z-score was inactive: -0.164.
For AGAAGUUUAUGAUUGUUCATT against CD5L, the median seed-adjusted z-score was inactive: 0.
In the case of GGCUGUGCUGUAUCCUCAATT against SERPINI1, the median seed-adjusted z-score is reported as inactive: 0.127.
For CCAAGAUCCUUAGCAGCAATT against NEK8, the median seed-adjusted z-score was inactive: -0.099.
With CCAUUCUUCAAAGAUUAAATT against RASSF6 the median seed-adjusted z-score was inactive: -0.592.
For GACCUGCCGUGAUAUCGUUTT against PSMA3, the median seed-adjusted z-score was inactive: -0.81.
With CAUAGAAGCUGGAUGUUCATT against ROD1 the median seed-adjusted z-score was inactive: 0.42.
With GCAGCUGUCUAUGAUGUAATT against AGPAT3 the median seed-adjusted z-score was inactive: 0.
With CGAUUUGCGCAUUUCCUGGTT against FOXD4L6 the median seed-adjusted z-score was inactive: -0.137.
With GGUUAUACUGGAGAGCUUUTT against DNER the median seed-adjusted z-score was inactive: -0.316.
For GGGAACUUCUCGGACAUCATT against CXCR7, the median seed-adjusted z-score was inactive: -0.511.
For GCAUCAUCCGGGAACCUUUTT against SELP, the median seed-adjusted z-score was inactive: -0.879.
In the case of GGCUAAGACUGAUCCGUCATT against ATP5O, the median seed-adjusted z-score is reported as inactive: -0.324.
For CACCCAGAAUGAGAACGGATT against FAM63B, the median seed-adjusted z-score was inactive: 0.111.
In the case of GAUAGAAGAUUGUAAAGCUTT against MACF1, the median seed-adjusted z-score is reported as inactive: -0.146.
For CAACCAGACUAUUCGGACATT against PPP1R10, the median seed-adjusted z-score was active: 1.41.
With GGUUUAAUCUUACCUAUAATT against OVCH2 the median seed-adjusted z-score was inactive: 0.439.
For GUAUCCUCUCGAUCACAUATT against UQCRH, the median seed-adjusted z-score was inactive: 0.458.
In the case of AAUUGUUACAGGUUGCAAATT against P4HA2, the median seed-adjusted z-score is reported as inactive: 0.
For ACAAGACUUAUGCAAGAUATT against XRCC6BP1, the median seed-adjusted z-score was inactive: 0.128.
In the case of GCGAGUGGAUGAUCCAGCATT against HLA-DMA, the median seed-adjusted z-score is reported as inactive: -0.00543.
For GCUGGAAAGUGGAACGGAATT against DUSP16, the median seed-adjusted z-score was inactive: 0.
For AGCGAAACAUUGUCUGGUATT against GAL3ST4, the median seed-adjusted z-score was inactive: 0.248.
With GGUACAUUCUGGAAGCACUTT against TRPT1 the median seed-adjusted z-score was inactive: -0.671.
In the case of CCUAAGCCUUAUUAAACAATT against ZNF100, the median seed-adjusted z-score is reported as inactive: -0.209.
For GAAAGGAUCUUGGAAUUCATT against SLC10A6, the median seed-adjusted z-score was inactive: -0.803.
In the case of GCAGAGUGCUUAUUCACUUTT against RGS3, the median seed-adjusted z-score is reported as inactive: 0.065.
In the case of CCAGAUAUCGACCAUAUAATT against KLF17, the median seed-adjusted z-score is reported as inactive: -0.131.
In the case of GCGACUACCUGUUUCAACATT against PELO, the median seed-adjusted z-score is reported as inactive: 0.394.
With GGACUUAAGCGACAACGCATT against RANGAP1 the median seed-adjusted z-score was inactive: -0.0379.
In the case of CAAAAGCAUCUACGACGUUTT against FOXH1, the median seed-adjusted z-score is reported as inactive: 0.
In the case of GGAAUGUGUGUGAUGCCUUTT against RAB40A, the median seed-adjusted z-score is reported as inactive: 0.
In the case of CAGUCUAACUGGAAUUACUTT against THEX1, the median seed-adjusted z-score is reported as inactive: -0.423.
For GUGCUAAACCAAUUCCGAATT against ALOX12, the median seed-adjusted z-score was inactive: -0.247.
For GCUUUUGCAUGGAUGUGCATT against ELTD1, the median seed-adjusted z-score was inactive: 0.387.
In the case of CAAGCAUCUCUGUGAAGAATT against CARD18, the median seed-adjusted z-score is reported as inactive: 0.568.
In the case of GUAUAUUACCUCAUGAACATT against PFKFB4, the median seed-adjusted z-score is reported as inactive: 0.149.
With GGCUGAACCUGUAUGAGUUTT against PSMB3 the median seed-adjusted z-score was inactive: -0.725.
With GGGUCAUGGUCACCGACUUTT against PCSK9 the median seed-adjusted z-score was inactive: 0.146.
With CCUCGACCACGAGCAGAAATT against PPP2R3B the median seed-adjusted z-score was inactive: 0.
With GAGAGUAAAUAUGCGAAUATT against ATP8B1 the median seed-adjusted z-score was inactive: 0.357.
In the case of AGCUGACCGAGUUCCUGCATT against GAL3ST1, the median seed-adjusted z-score is reported as inactive: 0.263.
For GCUUUGACCGUGUCCGAAATT against STT3A, the median seed-adjusted z-score was inactive: 0.
For GAAGCACUAGUGAAGGUUATT against UGT8, the median seed-adjusted z-score was inactive: 0.
